From article PMC7002697
Results are given in words; binding and its absence hold for the method and conditions named. Some binding calls cover weakened binding; strength is not graded here. Blank lines part the entries; values can stand above or below the binder they belong to.

Key:
[1] = target: T1, Syc2039 (Synpcc7942_2039) (Synechococcus elongatus PCC 7942) (UniProt Q31LK0); test: two-hybrid; BACTH (Euromedex) in E. coli BTH101; C- and N-terminal fusions to T25 or T18; beta-galactosidase assays (Miller units) from three colonies, grown over night at 30 °C or 2 d at 20 °C
T1 sequence: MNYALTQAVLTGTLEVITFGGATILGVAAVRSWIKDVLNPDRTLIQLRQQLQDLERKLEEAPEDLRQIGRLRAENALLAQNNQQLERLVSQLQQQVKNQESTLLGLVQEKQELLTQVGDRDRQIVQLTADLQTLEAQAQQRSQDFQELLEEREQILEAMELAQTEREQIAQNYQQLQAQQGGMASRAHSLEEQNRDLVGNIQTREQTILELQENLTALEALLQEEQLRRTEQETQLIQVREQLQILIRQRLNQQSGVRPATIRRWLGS

[2] = target: HmpFSyc (Synpcc7942_1139) (Synechococcus elongatus PCC 7942) (UniProt Q31P50); test: as above

binding [1]: binds
B1: Syc2039 (Synpcc7942_2039) (protein, UniProt Q31LK0 1-268)
chain: T1 sequence

binding [1]: binds
binding [2]: binds
B2: HmpFSyc (Synpcc7942_1139) (protein, UniProt Q31P50 1-556)
chain: MLYLAEVGKRGGLFGGNKVEFRLIAFQRPDEGWQVLPEEEVLASDKTCDFSPGALVLLDLNNSRQVQRIQEATQRLLGFLREFSRLQERYRAQEAEVEQWKESLSIQSQELSRRQQEFENRQDQLQQLQAELFQLEEQKQEALAIQQQADALRAELDRRDRELKEAWQELEIQRQSFSSQPFGAVAFAPETQAAIAQLEQQIANWQNDDTVLAELSNKVTAAQQDLQSRIASLTNPDQPDVGNLENLQQALQEQRRQFQTAHLEWMSQQARLEQDKHQLSEEQTLLAGLEQRRRAIAQACQLIHALTGEANRSELEALPLEELQERVAAVQRDYDRIYSFVNDQEEELRLETADLEKLRANLEQANELERLSLEGELIEAEQRCQLLDESLVAQRLIAQERLTVLQQYQQVLEGRQSGTPIAPEVDLSELRSLLDRELPDLDGLIANVQARVEKLQEDVATIEGGIQAKADRVYRLKETVESTEEKWRNCELQVAEIRGYNQAIAACREWLEQIAQTYSEVYGAICTLAEQQRQQQADRAALQQQLAAISHQLIAA
